# Data from the supplement of paper PMC8728848.
# The other results are listed elsewhere or left out.
# B1: Pbx2CASH domain (Cryptococcus neoformans) (protein)
# chain: GIPGPNRLYRLSGPIIFTAADQEIATYGYPTGSERAVLRVEGRNTATAIQGDCRRCARVSVKNLVVDGNRKKLGRMRDFQLATGLVVLGGNEGQSIQNSWIKNPRGFTAIHIREGDKLQCSGARVEKNEIGPVGEEYDPEKDGDDPEMSPLGRPLADGVSIACRDSFIRDNTFRDNTDAAIVVYCSPGTLIHA
# Assays:
# Test in all cases: glycan array binding signal (z-score within array); higher = stronger binding
# Conditions in all cases: glycan notation: IUPAC condensed, linker removed
# Gal(b1-3)Gal = molecular target: Gal(b1-3)Gal
# Method in brief: (§1)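 The binding signal is a Z-score computed within each array. Data were drawn from 3228 arrays in the Consortium for Functional Glycomics database, restricted to those with a known protein sequence. Scores were averaged over arrays of the same protein sequence at different concentrations or buffers, and over linkers, and negative values can be taken as non-binding.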
# Gal(b1-3)Gal(b1-4)GlcNAc = molecular target: Gal(b1-3)Gal(b1-4)GlcNAc
# Method in brief: as §1
# Gal(b1-3)GalNAc = molecular target: Gal(b1-3)GalNAc
# Method in brief: as §1
# [1] = molecular target: Gal(b1-3)GalNAc(a1-3)[Fuc(a1-2)]Gal(b1-4)Glc
# Method in brief: as §1
# [2] = molecular target: Gal(b1-3)GalNAc(a1-3)[Fuc(a1-2)]Gal(b1-4)GlcNAc
# Method in brief: as §1
# Gal(b1-3)GalNAc(b1-3)Gal = molecular target: Gal(b1-3)GalNAc(b1-3)Gal
# Method in brief: as §1
# [3] = molecular target: Gal(b1-3)GalNAc(b1-3)Gal(a1-4)Gal(b1-4)Glc
# Method in brief: as §1
# [4] = molecular target: Gal(b1-3)GalNAc(b1-4)Gal(b1-4)Glc
# Method in brief: as §1
# [5] = molecular target: Gal(b1-3)GalNAc(b1-4)[Neu5Ac(a2-3)]Gal(b1-4)Glc
# Method in brief: as §1
# Gal(b1-3)GlcNAc = molecular target: Gal(b1-3)GlcNAc
# Method in brief: as §1
# [6] = molecular target: Gal(b1-3)GlcNAc(a1-3)Gal(b1-4)GlcNAc
# Method in brief: as §1
# [7] = molecular target: Gal(b1-3)GlcNAc(a1-6)Gal(b1-4)GlcNAc
# Method in brief: as §1
# Gal(b1-3)GlcNAc(b1-2)Man = molecular target: Gal(b1-3)GlcNAc(b1-2)Man
# Method in brief: as §1
# [8] = molecular target: Gal(b1-3)GlcNAc(b1-2)Man(a1-3)[Gal(b1-3)GlcNAc(b1-2)Man(a1-6)]Man(b1-4)GlcNAc(b1-4)GlcNAc
# Method in brief: as §1
# [9] = molecular target: Gal(b1-3)GlcNAc(b1-2)Man(a1-3)[Gal(b1-3)GlcNAc(b1-2)Man(a1-6)]Man(b1-4)GlcNAc(b1-4)[Fuc(a1-6)]GlcNAc
# Method in brief: as §1
# [10] = molecular target: Gal(b1-3)GlcNAc(b1-2)Man(a1-3)[GlcNAc(b1-4)][Gal(b1-3)GlcNAc(b1-2)Man(a1-6)]Man(b1-4)GlcNAc(b1-4)GlcNAc
# Method in brief: as §1
# [11] = molecular target: Gal(b1-3)GlcNAc(b1-2)[Gal(b1-3)GlcNAc(b1-6)]Man(a1-6)[Gal(b1-3)GlcNAc(b1-2)Man(a1-3)]Man(b1-4)GlcNAc(b1-4)GlcNAc
# Method in brief: as §1
# [12] = molecular target: Gal(b1-3)GlcNAc(b1-3)Gal(b1-3)GlcNAc
# Method in brief: as §1
# [13] = molecular target: Gal(b1-3)GlcNAc(b1-3)Gal(b1-4)Glc
# Method in brief: as §1
# [14] = molecular target: Gal(b1-3)GlcNAc(b1-3)Gal(b1-4)GlcNAc
# Method in brief: as §1
# [15] = molecular target: Gal(b1-3)GlcNAc(b1-3)Gal(b1-4)GlcNAc(b1-2)Man(a1-3)[Gal(b1-3)GlcNAc(b1-3)Gal(b1-4)GlcNAc(b1-2)Man(a1-6)]Man(b1-4)GlcNAc(b1-4)GlcNAc
# Method in brief: as §1
# [16] = molecular target: Gal(b1-3)GlcNAc(b1-3)Gal(b1-4)GlcNAc(b1-2)[Gal(b1-3)GlcNAc(b1-3)Gal(b1-4)GlcNAc(b1-6)]Man(a1-6)[Gal(b1-3)GlcNAc(b1-3)Gal(b1-4)GlcNAc(b1-2)Man(a1-3)]Man(b1-4)GlcNAc(b1-4)[Fuc(a1-6)]GlcNAc
# Method in brief: as §1
# [17] = molecular target: Gal(b1-3)GlcNAc(b1-3)Gal(b1-4)GlcNAc(b1-3)Gal(b1-4)GlcNAc(b1-2)[Gal(b1-3)GlcNAc(b1-3)Gal(b1-4)GlcNAc(b1-3)Gal(b1-4)GlcNAc(b1-6)]Man(a1-6)[Gal(b1-3)GlcNAc(b1-3)Gal(b1-4)GlcNAc(b1-3)Gal(b1-4)GlcNAc(b1-2)Man(a1-3)]Man(b1-4)GlcNAc(b1-4)[Fuc(a1-6)]GlcNAc
# Method in brief: as §1
# [18] = molecular target: Gal(b1-3)GlcNAc(b1-3)Gal(b1-4)GlcNAc(b1-6)[Gal(b1-3)GlcNAc(b1-3)]Gal(b1-4)Glc
# Method in brief: as §1
# [19] = molecular target: Gal(b1-3)GlcNAc(b1-3)Gal(b1-4)[Fuc(a1-3)]GlcNAc
# Method in brief: as §1
# [20] = molecular target: Gal(b1-3)GlcNAc(b1-3)Gal(b1-4)[Fuc(a1-3)]GlcNAc(b1-6)[Gal(b1-3)GlcNAc(b1-3)]Gal(b1-4)Glc
# Method in brief: as §1
# [21] = molecular target: Gal(b1-3)GlcNAc(b1-3)GalNAc
# Method in brief: as §1
# [22] = molecular target: Gal(b1-3)GlcNAc(b1-6)Gal(b1-4)GlcNAc
# Method in brief: as §1
# [23] = molecular target: Gal(b1-3)GlcNAc(b1-6)GalNAc
# Method in brief: as §1
# [24] = molecular target: Gal(b1-3)GlcNAc(b1-6)[Gal(b1-3)]GalNAc
# Method in brief: as §1
# Gal(b1-3)GlcNAc6S = molecular target: Gal(b1-3)GlcNAc6S
# Method in brief: as §1
# [25] = molecular target: Gal(b1-3)[Fuc(a1-4)]GlcNAc
# Method in brief: as §1
# [26] = molecular target: Gal(b1-3)[Fuc(a1-4)]GlcNAc(b1-2)Man
# Method in brief: as §1
# [27] = molecular target: Gal(b1-3)[Fuc(a1-4)]GlcNAc(b1-2)Man(a1-3)[Gal(b1-3)[Fuc(a1-4)]GlcNAc(b1-2)Man(a1-6)]Man(b1-4)GlcNAc(b1-4)[Fuc(a1-6)]GlcNAc
# Method in brief: as §1
# [28] = molecular target: Gal(b1-3)[Fuc(a1-4)]GlcNAc(b1-3)Gal(b1-3)[Fuc(a1-4)]GlcNAc
# Method in brief: as §1
# [29] = molecular target: Gal(b1-3)[Fuc(a1-4)]GlcNAc(b1-3)Gal(b1-4)[Fuc(a1-3)]GlcNAc
# Method in brief: as §1
# [30] = molecular target: Gal(b1-3)[Fuc(a1-4)]GlcNAc(b1-6)GalNAc
# Method in brief: as §1
# [31] = molecular target: Gal(b1-3)[GlcNAc(b1-6)]GalNAc
# Method in brief: as §1
# [32] = molecular target: Gal(b1-3)[Neu5Ac(a2-6)]GalNAc
# Method in brief: as §1
# [33] = molecular target: Gal(b1-3)[Neu5Ac(a2-6)]GlcNAc(b1-4)Gal(b1-4)Glc
# Method in brief: as §1
# [34] = molecular target: Gal(b1-3)[Neu5Ac(b2-6)]GalNAc
# Method in brief: as §1
# Gal(b1-4)Gal = molecular target: Gal(b1-4)Gal
# Method in brief: as §1
# [35] = molecular target: Gal(b1-4)GalNAc(a1-3)[Fuc(a1-2)]Gal(b1-4)GlcNAc
# Method in brief: as §1
# [36] = molecular target: Gal(b1-4)GalNAc(b1-3)[Fuc(a1-2)]Gal(b1-4)GlcNAc
# Method in brief: as §1
# Gal(b1-4)Glc = molecular target: Gal(b1-4)Glc
# Method in brief: as §1
binder,measurement,setting,value
B1,glycan array binding signal (z-score),Gal(b1-3)Gal,-0.788
same,glycan array binding signal (z-score),Gal(b1-3)Gal(b1-4)GlcNAc,-0.056
same,glycan array binding signal (z-score),Gal(b1-3)GalNAc,0.184
same,glycan array binding signal (z-score),[1],-0.669
same,glycan array binding signal (z-score),[2],-0.559
same,glycan array binding signal (z-score),Gal(b1-3)GalNAc(b1-3)Gal,-0.371
same,glycan array binding signal (z-score),[3],-0.101
same,glycan array binding signal (z-score),[4],-0.346
same,glycan array binding signal (z-score),[5],-0.472
same,glycan array binding signal (z-score),Gal(b1-3)GlcNAc,-0.347
same,glycan array binding signal (z-score),[6],-0.056
same,glycan array binding signal (z-score),[7],-0.458
same,glycan array binding signal (z-score),Gal(b1-3)GlcNAc(b1-2)Man,-0.602
same,glycan array binding signal (z-score),[8],-0.271
same,glycan array binding signal (z-score),[9],-0.175
same,glycan array binding signal (z-score),[10],-0.134
same,glycan array binding signal (z-score),[11],0.441
same,glycan array binding signal (z-score),[12],-0.02
same,glycan array binding signal (z-score),[13],-0.223
same,glycan array binding signal (z-score),[14],-0.457
same,glycan array binding signal (z-score),[15],0.017
same,glycan array binding signal (z-score),[16],2.19
same,glycan array binding signal (z-score),[17],1.8
same,glycan array binding signal (z-score),[18],-0.648
same,glycan array binding signal (z-score),[19],-0.351
same,glycan array binding signal (z-score),[20],-0.568
same,glycan array binding signal (z-score),[21],0.422
same,glycan array binding signal (z-score),[22],-0.683
same,glycan array binding signal (z-score),[23],0.392
same,glycan array binding signal (z-score),[24],0.523
same,glycan array binding signal (z-score),Gal(b1-3)GlcNAc6S,0.283
same,glycan array binding signal (z-score),[25],-0.443
same,glycan array binding signal (z-score),[26],1.16
same,glycan array binding signal (z-score),[27],-0.077
same,glycan array binding signal (z-score),[28],-0.172
same,glycan array binding signal (z-score),[29],-0.513
same,glycan array binding signal (z-score),[30],1.39
same,glycan array binding signal (z-score),[31],-0.141
same,glycan array binding signal (z-score),[32],-0.622
same,glycan array binding signal (z-score),[33],-0.128
same,glycan array binding signal (z-score),[34],-0.426
same,glycan array binding signal (z-score),Gal(b1-4)Gal,0.808
same,glycan array binding signal (z-score),[35],-0.766
same,glycan array binding signal (z-score),[36],-0.344
same,glycan array binding signal (z-score),Gal(b1-4)Glc,-0.276

# Part of the list above, with tabs.
binder	measurement	setting	value
B1	glycan array binding signal (z-score)	[7]	-0.458
same	glycan array binding signal (z-score)	Gal(b1-4)Gal	0.808
